Source: publication PMC7414107
No constants are given. Whether binding was seen depends on the method and setting. Binding seen in cells or lysates may run through a third protein. Here binding means that the protein was enriched with, or labelled near, the bait; the list need not be complete.

Protein sequences, listed by entry. Tags and fused reporters are not part of them.
UniProt Q80VP1: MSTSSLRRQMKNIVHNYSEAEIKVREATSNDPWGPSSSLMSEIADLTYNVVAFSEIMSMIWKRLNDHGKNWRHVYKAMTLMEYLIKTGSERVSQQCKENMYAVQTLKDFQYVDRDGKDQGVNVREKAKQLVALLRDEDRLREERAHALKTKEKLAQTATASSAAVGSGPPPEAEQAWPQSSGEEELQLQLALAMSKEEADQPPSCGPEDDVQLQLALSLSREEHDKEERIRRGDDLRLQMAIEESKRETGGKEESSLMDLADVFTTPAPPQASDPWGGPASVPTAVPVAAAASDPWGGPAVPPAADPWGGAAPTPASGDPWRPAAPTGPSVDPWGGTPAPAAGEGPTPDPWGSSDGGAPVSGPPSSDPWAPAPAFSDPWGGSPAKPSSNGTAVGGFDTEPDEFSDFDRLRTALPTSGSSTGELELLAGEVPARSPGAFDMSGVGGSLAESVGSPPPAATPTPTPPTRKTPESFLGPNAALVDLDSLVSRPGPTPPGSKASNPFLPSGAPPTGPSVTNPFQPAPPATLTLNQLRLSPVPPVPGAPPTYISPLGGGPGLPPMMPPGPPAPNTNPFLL

Biological target: epsin 1 (mouse (endogenous in MAECs)) (UniProt Q80VP1)
Experiment: affinity purification with mass spectrometry; immunoprecipitation with an epsin-1 antibody on rec-protein-G-Sepharose 4B beads from MAECs treated with 100 µg/mL oxLDL for 30 min; Coomassie-stained gel bands digested with trypsin and identified by LC-MS/MS

binding: binds
B1: epsin 2 (protein, UniProt Q8CHU3 1-595)
chain: MTTSSIRRQMKNIVNNYSEAEIKVREATSNDPWGPSSSLMTEIADLTYNVVAFSEIMSMVWKRLNDHGKNWRHVYKALTLLDYLIKTGSERVAQQCRENIFAIQTLKDFQYIDRDGKDQGINVREKSKQLVALLKDEERLKVERVQALKTKERMAQVATGVGSNQITFGRGSSQPNLSTSYSEQEYGKAGGSPASYHGSTSPRVSSELEQARPQTSGEEELQLQLALAMSREVAEQSSESVQTARGSKEERLRRGDDLRLQMALEESRRDTVKVPKKKEAKACCKPGSHSQQTTLLDLMDALPSSGPVTQKTEPWSAGASANQTNPWGGTVAPSNITDPWPSFGTKPAASVDPWGVPTTASTQSVPKNSDPWAASQQPASNAGKTTDAWGAAKPSSASGSFELFSNFNGTVKDDFSEFDNLRTSKKPAESGASVPPQDSRTTSPDLFESQSLTSASSKPSSARKTPESFLGPNAALVNLDSLVTKPAPPAQSLNPFLAPGAAAPAPVNPFQVNQPQPLTLNQLRGSPVLGSSASFGSGPGVETVAPMTSVAPHSSVGASGSSLTPLGPTAMNMVGSVGIPPSAAQSTGTTNPFLL
